According to ChEMBL document CHEMBL4316593 (Eur J Med Chem, 2019):
Further values from the same series stand in other lists.

What was measured:
Type in all cases: cell-based
Conditions in all cases: U-87MG ATCC
[1] = Inhibition of RTK/PI3K/AKT/mTOR signaling in human U87 cells assessed as down regulation of FAM102B gene expression at cytotoxic IC50 measured after 48 hrs relative to control
[2] = Inhibition of RTK/PI3K/AKT/mTOR signaling in human U87 cells assessed as down regulation of KAT2B gene expression at cytotoxic IC50 measured after 48 hrs relative to control
[3] = Inhibition of RTK/PI3K/AKT/mTOR signaling in human U87 cells assessed as down regulation of RBM15 gene expression at cytotoxic IC50 measured after 48 hrs relative to control
[4] = Inhibition of RTK/PI3K/AKT/mTOR signaling in human U87 cells assessed as down regulation of HBEGF gene expression at cytotoxic IC50 measured after 48 hrs relative to control
[5] = Inhibition of RTK/PI3K/AKT/mTOR signaling in human U87 cells assessed as down regulation of TRAPPC4 gene expression at cytotoxic IC50 measured after 48 hrs relative to control
[6] = Inhibition of RTK/PI3K/AKT/mTOR signaling in human U87 cells assessed as down regulation of GK5 gene expression at cytotoxic IC50 measured after 48 hrs relative to control
[7] = Inhibition of RTK/PI3K/AKT/mTOR signaling in human U87 cells assessed as down regulation of PTTG1 gene expression at cytotoxic IC50 measured after 48 hrs relative to control
[8] = Inhibition of RTK/PI3K/AKT/mTOR signaling in human U87 cells assessed as down regulation of PLK4 gene expression at cytotoxic IC50 measured after 48 hrs relative to control
[9] = Inhibition of RTK/PI3K/AKT/mTOR signaling in human U87 cells assessed as down regulation of NFKBIB gene expression at cytotoxic IC50 measured after 48 hrs relative to control
[10] = Inhibition of RTK/PI3K/AKT/mTOR signaling in human U87 cells assessed as down regulation of ALS2 gene expression at cytotoxic IC50 measured after 48 hrs relative to control
[11] = Inhibition of RTK/PI3K/AKT/mTOR signaling in human U87 cells assessed as down regulation of USB1 gene expression at cytotoxic IC50 measured after 48 hrs relative to control
[12] = Inhibition of RTK/PI3K/AKT/mTOR signaling in human U87 cells assessed as down regulation of SMNDC1 gene expression at cytotoxic IC50 measured after 48 hrs relative to control
[13] = Inhibition of RTK/PI3K/AKT/mTOR signaling in human U87 cells assessed as down regulation of CCT4 gene expression at cytotoxic IC50 measured after 48 hrs relative to control
[14] = Inhibition of RTK/PI3K/AKT/mTOR signaling in human U87 cells assessed as up regulation of BNIP3 gene expression at cytotoxic IC50 measured after 48 hrs relative to control
[15] = Inhibition of RTK/PI3K/AKT/mTOR signaling in human U87 cells assessed as up regulation of LDHA gene expression at cytotoxic IC50 measured after 48 hrs relative to control
[16] = Inhibition of RTK/PI3K/AKT/mTOR signaling in human U87 cells assessed as up regulation of GJB3 gene expression at cytotoxic IC50 measured after 48 hrs relative to control
[17] = Inhibition of RTK/PI3K/AKT/mTOR signaling in human U87 cells assessed as up regulation of SMURF2 gene expression at cytotoxic IC50 measured after 48 hrs relative to control
[18] = Inhibition of RTK/PI3K/AKT/mTOR signaling in human U87 cells assessed as up regulation of DPYSL4 gene expression at cytotoxic IC50 measured after 48 hrs relative to control
[19] = Inhibition of RTK/PI3K/AKT/mTOR signaling in human U87 cells assessed as up regulation of olfactory receptor family 51 subfamily B member 4 gene expression at cytotoxic IC50 measured after 48 hrs relative to control
[20] = Inhibition of RTK/PI3K/AKT/mTOR signaling in human U87 cells assessed as up regulation of ATPase secretory pathway Ca2+ transporting 2 gene expression at cytotoxic IC50 measured after 48 hrs relative to control
[21] = Inhibition of RTK/PI3K/AKT/mTOR signaling in human U87 cells assessed as up regulation of CTD small phosphatase like gene expression at cytotoxic IC50 measured after 48 hrs relative to control
[22] = Inhibition of RTK/PI3K/AKT/mTOR signaling in human U87 cells assessed as up regulation of family with sequence similarity 3 member C gene expression at cytotoxic IC50 measured after 48 hrs relative to control
[23] = Inhibition of RTK/PI3K/AKT/mTOR signaling in human U87 cells assessed as up regulation of PTOV1 antisense RNA 1 gene expression at cytotoxic IC50 measured after 48 hrs relative to control
[24] = Inhibition of RTK/PI3K/AKT/mTOR signaling in human U87 cells assessed as up regulation of one cut homeobox 3 gene expression at cytotoxic IC50 measured after 48 hrs relative to control
[25] = Inhibition of RTK/PI3K/AKT/mTOR signaling in human U87 cells assessed as up regulation of tetratricopeptide repeat domain 39A gene expression at cytotoxic IC50 measured after 48 hrs relative to control
[26] = Inhibition of RTK/PI3K/AKT/mTOR signaling in human U87 cells assessed as up regulation of nuclear receptor coactivator 5 gene expression at cytotoxic IC50 measured after 48 hrs relative to control
[27] = Inhibition of RTK/PI3K/AKT/mTOR signaling in human U87 cells assessed as up regulation of sideroflexin 4 gene expression at cytotoxic IC50 measured after 48 hrs relative to control
[28] = Inhibition of RTK/PI3K/AKT/mTOR signaling in human U87 cells assessed as up regulation of TBC1 domain family member 8B gene expression at cytotoxic IC50 measured after 48 hrs relative to control
[29] = Inhibition of RTK/PI3K/AKT/mTOR signaling in human U87 cells assessed as up regulation of KIAA1671 gene expression at cytotoxic IC50 measured after 48 hrs relative to control
[30] = Inhibition of RTK/PI3K/AKT/mTOR signaling in human U87 cells assessed as up regulation of RAB3B gene expression at cytotoxic IC50 measured after 48 hrs relative to control
[31] = Inhibition of RTK/PI3K/AKT/mTOR signaling in human U87 cells assessed as up regulation of ZBTB4 gene expression at cytotoxic IC50 measured after 48 hrs relative to control
[32] = Inhibition of RTK/PI3K/AKT/mTOR signaling in human U87 cells assessed as up regulation of CLIC4 gene expression at cytotoxic IC50 measured after 48 hrs relative to control

## CC(=O)C(=NNc1ccccc1C#N)C(C)=O
[1]
  log2FC: -2.26
[2]
  log2FC: -1.71
[3]
  log2FC: -1.08
[4]
  log2FC: -0.944
[5]
  log2FC: -0.921
[6]
  log2FC: -0.914
[7]
  log2FC: -0.834
[8]
  log2FC: -0.814
[9]
  log2FC: -0.811
[10]
  log2FC: -0.734
[11]
  log2FC: -0.676
[12]
  log2FC: -0.558
[13]
  log2FC: -0.396
[14]
  log2FC: 2.88
[15]
  log2FC: 2.27
[16]
  log2FC: 2.21
[17]
  log2FC: 1.79
[18]
  log2FC: 1.7
[19]
  log2FC: 1.55
[20]
  log2FC: 1.51
[21]
  log2FC: 1.18
[22]
  log2FC: 1.08
[23]
  log2FC: 0.988
[24]
  log2FC: 0.868
[25]
  log2FC: 0.827
[26]
  log2FC: 0.816
[27]
  log2FC: 0.802
[28]
  log2FC: 0.788
[29]
  log2FC: 0.763
[30]
  log2FC: 0.632
[31]
  log2FC: 0.612
[32]
  log2FC: 0.413
